PubChem BioAssay AID504786, Drosophila RNAi Screening Center | 2011

Aim: 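Positive regulators of HIF-driven reporter output in Drosophila cells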 (primary screen)
Cells: Drosophila S2 cells with a stable HIF luciferase reporter
Knock-down reagent: long dsRNA against Drosophila genes, about 0.2 µg dsRNA per well of a 384-well plate
Time to read-out: three days of knock-down, then 20 h of DFO before reading
Treatment: desferrioxamine (DFO) at 100 µM, an iron chelator that mimics hypoxia, for 20 h
Measurement: 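HIF reporter luminescence in cells given 100 µM DFO for 20 h, using the mouse ldh-a hypoxia-response element, scored as per-plate z-scores; higher means greater loss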
Reading the numbers: z-score: higher = stronger loss of HIF reporter signal
The screen tested about 21,000 reagents; this is a random part of those with a known target gene and a result. 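Primary screen; positive scores mean lost reporter signal, so the sign may be inverted from the usual convention.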 No sequences are given here.

target	PubChem SID	z-score, replicate 1	z-score, replicate 2	z-score, replicate 3	z-score, replicate 4
Polr1H	SID104194386	-0.1	0.5		
Sec5	SID104180506	-0.4	-0.7		
ScsbetaG	SID104191086	0	-0.3		
CG33144	SID104185924	-0.5	-0.7		
CG33144	SID104186816	-0.2	-0.2		
ND-B14	SID104186821	0.3	0.6		
Sirt4	SID104198082	-0.3	-0.3		
CG31313	SID104192836	0.3	0		
Snr1	SID104192161	3.3	3.2		
CG14787	SID104198398	-0.4	-0.4		
nompC	SID104183373	-0.3	0		
CG10252	SID104194013	-0.1	-0.5		
lbm	SID104187435	0.1	0.1		
Arpc2	SID104181905	0.2	0.4		
Obsc	SID104184093	-1.5	-0.2		
Obsc	SID104184094	-0.2	-0.3		
Obsc	SID104184095	-0.4	-0.5		
Obsc	SID104184222	-0.1	-0.3		
CG17107	SID104182367	0	0.1	-0.1	-0.3
GlcAT-P	SID104190395	-0.2	-0.4		
GlcAT-P	SID104190396	0.3	0.1		
CG33342	SID104193454	-0.3	-0.2		
mRpL14	SID104198389	0.8	0.5		
oaf	SID104180623	-0.2	-0.7		
CG4461	SID104190215	-0.1	0		
ATPsynGL	SID104182819	-0.2	-0.4		
CG30339	SID104184960	-0.2	-0.1		
CG4069	SID104190188	-0.3	-0.3		
CG5281	SID104195553	-0.3	-0.6		
CG3517	SID104195284	-0.7	0		
Ir92a	SID104194903	0	0.3		
CG5921	SID104197223	-0.3	-0.1		
CG5921	SID104198182	-0.3	-0.6		
hyx	SID104194254	2	2.7		
CG17778	SID104198296	-0.1	0.1		
Tango8	SID104186266	0.8	0.7		
ubl	SID104184790	0.3	0.4		
CG11663	SID104197585	0.9	0.1		
Gpa2	SID104200863	-0.1	0.5		
TTLL1A	SID104199913	-0.2	-0.3		
Nle	SID104180555	-0.3	-0.5		
Dhdds	SID104197548	-0.1	0.3		
Prosalpha6	SID104183193	5.3	6.1		
tobi	SID104194227	-0.5	0.4		
CG8958	SID104199926	-0.5	-0.4		
RpS5a	SID104200074	7	4.7		
CG31050	SID104193675	0	0		
CecC	SID104196398	-0.1	0.6		
car	SID104200108	-0.2	0.1		
Cenp-C	SID104194163	0.3	0.1		
elfless	SID104182243	-0.1	0.1		
CG42288	SID104186173	-0.4	0.1		
und	SID104183421	-0.1	0.1		
Ssl1	SID104191426	-0.4	-0.8		
CG33233	SID104188031	-0.2	-0.1		
RpL31	SID104186508	5.3	4.8		
Membrin	SID104190240	-0.5	-0.6		
Pop4	SID104190747	-0.1	-0.1		
H15	SID104183131	-0.1	-0.1		
eIF3k	SID104183848	-0.5	-1		
Spx	SID104198512	4.6	2.6		
EMC4	SID104191430	-0.2	0		
nord	SID104184002	-0.2	-0.2		
nord	SID104184153	0.3	0.3		
Pex10	SID104188391	-0.3	-0.2	-0.3	-0.2
Hel25E	SID104183134	5.1	5.1		
CG6602	SID104190465	-0.4	-0.7		
CG30109	SID104185467	-0.3	-0.3		
CG4653	SID104199701	-0.2	-0.2	-0.1	-0.2
CG2129	SID104198001	0	0.3		
ND-20	SID104199956	-0.2	-0.7		
Obp19b	SID104200328	0.1	0.4		
Epg5	SID104194570	-0.4	0		
lectin-21Ca	SID104180333	0	-0.2		
beat-Vb	SID104192732	-0.2	0.5		
beat-Vb	SID104194636	1.4	-0.1		
beat-Vb	SID104194637	0	0.5		
CenG1A	SID104182330	-0.3	-0.3		
CenG1A	SID104183297	-0.4	-0.2		
CenG1A	SID104183298	-0.2	-0.2		
CG6788	SID104199799	-0.4	-1.1		
CG7840	SID104182867	-0.3	-0.1		
Pask	SID104184129	-0.2	-0.6		
Skadu	SID104181282	-0.3	0.2		
CARPB	SID104198229	-0.4	-0.4		
CARPB	SID104198230	-0.3	-0.8		
DIP-zeta	SID104181995	-0.3	-0.5		
DIP-zeta	SID104181996	-0.4	-0.4		
DIP-zeta	SID104181997	0.1	-0.2		
CG4238	SID104179882	-0.1	-0.2		
CG4238	SID104180436	0	-0.8		
Vps26	SID104198347	0	-0.1		
CG3748	SID104182508	-0.2	-0.1		

9 entries from above, arranged by “z-score, replicate 1”, high to low:
target	PubChem SID	z-score, replicate 1	z-score, replicate 2	z-score, replicate 3	z-score, replicate 4
Snr1	SID104192161	3.3	3.2		
Arpc2	SID104181905	0.2	0.4		
lbm	SID104187435	0.1	0.1		
CG10252	SID104194013	-0.1	-0.5		
Obsc	SID104184094	-0.2	-0.3		
nompC	SID104183373	-0.3	0		
CG14787	SID104198398	-0.4	-0.4		
Obsc	SID104184095	-0.4	-0.5		
Obsc	SID104184093	-1.5	-0.2		
